Experimental data reported in patent publication US20170283457A1 (YEDA RESEARCH AND DEVELOPMENT, published 2017).
No constants are given. Whether binding was seen depends on the method and setting. For part of these data: In cells and extracts the contact can be indirect. Some results given as binding are weak or reduced against the parent protein; the word gives no strength.

By UniProt entry, the sequences of proteins in these tests, tags left out. Residues count along the entry.
UniProt O95373: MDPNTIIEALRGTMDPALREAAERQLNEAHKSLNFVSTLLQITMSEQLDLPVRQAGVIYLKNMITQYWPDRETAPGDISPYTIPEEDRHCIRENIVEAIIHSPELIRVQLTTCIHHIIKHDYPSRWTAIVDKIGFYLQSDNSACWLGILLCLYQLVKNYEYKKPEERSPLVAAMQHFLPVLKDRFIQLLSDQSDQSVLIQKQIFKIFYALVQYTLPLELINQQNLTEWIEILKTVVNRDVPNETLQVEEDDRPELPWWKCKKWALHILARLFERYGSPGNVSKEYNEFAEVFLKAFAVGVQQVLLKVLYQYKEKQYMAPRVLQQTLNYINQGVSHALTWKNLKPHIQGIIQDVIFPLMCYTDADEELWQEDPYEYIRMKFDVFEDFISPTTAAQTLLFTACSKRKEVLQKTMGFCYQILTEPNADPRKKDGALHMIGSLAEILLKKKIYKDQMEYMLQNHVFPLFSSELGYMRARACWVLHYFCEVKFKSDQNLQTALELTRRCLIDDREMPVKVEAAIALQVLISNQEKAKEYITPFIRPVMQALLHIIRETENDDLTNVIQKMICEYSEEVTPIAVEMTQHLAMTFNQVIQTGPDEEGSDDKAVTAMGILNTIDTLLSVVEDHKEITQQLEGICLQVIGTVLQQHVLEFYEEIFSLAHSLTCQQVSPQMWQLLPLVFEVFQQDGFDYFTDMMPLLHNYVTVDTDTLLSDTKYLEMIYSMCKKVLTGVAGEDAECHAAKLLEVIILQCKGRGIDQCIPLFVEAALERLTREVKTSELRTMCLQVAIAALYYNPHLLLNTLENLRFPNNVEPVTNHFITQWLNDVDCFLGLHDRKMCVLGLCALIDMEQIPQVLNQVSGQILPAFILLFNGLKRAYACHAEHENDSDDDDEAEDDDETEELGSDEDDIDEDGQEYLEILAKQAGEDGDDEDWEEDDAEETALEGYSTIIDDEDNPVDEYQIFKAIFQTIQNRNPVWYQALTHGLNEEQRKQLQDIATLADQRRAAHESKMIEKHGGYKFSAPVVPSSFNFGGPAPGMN
UniProt Q96P70, residues 2-1041: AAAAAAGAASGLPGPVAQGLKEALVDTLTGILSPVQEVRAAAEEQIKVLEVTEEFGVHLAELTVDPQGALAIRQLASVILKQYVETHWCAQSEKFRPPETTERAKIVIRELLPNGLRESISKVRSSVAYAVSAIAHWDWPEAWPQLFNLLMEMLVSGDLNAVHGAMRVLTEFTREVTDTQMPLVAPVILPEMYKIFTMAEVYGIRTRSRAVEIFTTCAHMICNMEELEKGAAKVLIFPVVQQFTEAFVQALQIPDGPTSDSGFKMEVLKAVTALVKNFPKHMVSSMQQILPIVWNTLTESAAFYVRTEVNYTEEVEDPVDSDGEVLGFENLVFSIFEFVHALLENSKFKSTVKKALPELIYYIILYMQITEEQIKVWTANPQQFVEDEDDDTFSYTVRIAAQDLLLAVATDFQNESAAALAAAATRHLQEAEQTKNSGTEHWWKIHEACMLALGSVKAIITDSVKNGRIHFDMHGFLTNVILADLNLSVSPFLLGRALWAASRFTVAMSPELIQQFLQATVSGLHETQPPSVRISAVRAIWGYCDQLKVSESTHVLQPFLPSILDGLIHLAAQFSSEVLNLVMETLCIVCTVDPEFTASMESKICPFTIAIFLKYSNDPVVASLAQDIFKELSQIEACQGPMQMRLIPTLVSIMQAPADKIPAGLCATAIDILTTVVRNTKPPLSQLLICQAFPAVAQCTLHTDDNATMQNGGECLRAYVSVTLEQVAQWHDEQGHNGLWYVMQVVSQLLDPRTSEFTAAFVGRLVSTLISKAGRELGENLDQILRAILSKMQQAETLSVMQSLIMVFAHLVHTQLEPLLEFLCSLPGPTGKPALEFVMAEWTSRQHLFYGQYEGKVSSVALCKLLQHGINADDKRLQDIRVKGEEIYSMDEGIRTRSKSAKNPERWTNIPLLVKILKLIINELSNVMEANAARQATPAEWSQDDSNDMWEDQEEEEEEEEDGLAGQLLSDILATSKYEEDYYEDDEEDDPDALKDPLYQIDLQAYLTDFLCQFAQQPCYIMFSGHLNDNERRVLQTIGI
UniProt P45983: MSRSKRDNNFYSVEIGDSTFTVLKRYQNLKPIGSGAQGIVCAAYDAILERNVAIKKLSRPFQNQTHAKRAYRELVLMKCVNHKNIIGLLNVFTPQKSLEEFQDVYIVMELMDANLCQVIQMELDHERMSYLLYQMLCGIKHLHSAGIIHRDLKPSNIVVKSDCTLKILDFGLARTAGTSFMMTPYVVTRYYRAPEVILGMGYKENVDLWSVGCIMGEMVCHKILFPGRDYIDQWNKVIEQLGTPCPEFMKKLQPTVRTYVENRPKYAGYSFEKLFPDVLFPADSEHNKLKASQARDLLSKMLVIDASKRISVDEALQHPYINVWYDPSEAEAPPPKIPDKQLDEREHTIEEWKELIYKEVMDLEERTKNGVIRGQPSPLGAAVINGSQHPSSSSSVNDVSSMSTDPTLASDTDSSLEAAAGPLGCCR

Key:
[1] = biological target: T1, Importin7 (UniProt O95373 1-1038); assay: in vitro interaction: GST-MAPK (500 ng) with Imp IPed from HeLa cells, Western blot
T1 construct: Endogenous protein; also called Imp7; RANBP7

[2] = biological target: T2, Importin9 (UniProt Q96P70 2-1041); assay: as above
T2 construct: Endogenous protein; also called Imp9; IMB5

[3] = biological target: T1, Importin7; assay: in vitro interaction: GST-MAPK with Imp IPed from stimulated HeLa cells, Western blot
Experimental: (§1) FIGS. 3A-3B illustrate that JNK1/2 and p38α/β directly interact with either Imp7 or Imp9 but not with Imp3. (A) In vitro interaction of JNK1/2 and p38α/β with Imp3/7/9. Purified Imp3/7/9 were prepared by IP as follows: HeLa cells were grown to 70% confluence, serum starved, and then were either stimulated with Anisomycin (Anis 0.5 μg/ml, 15 min), TPA (250 nM, 15 min) or left untreated (NT). Imp3/7/9 were then IPed from the cell's extracts and extensively washed, twice with RIPA buffer and once with 0.5M LiCl. The indicated GST-MAPKs were prepared from bacteria as described under Materials and methods. To examine association, 500 ng of each GST-MAPK were incubated with 20 μl of the indicated IPed Imps in PBS (2 hrs, 4° C., with rotation). The beads were then washed with washing buffer containing 150 mM NaCl, and interacting MAPKs were detected using Western blot analysis with the indicated Abs. (B) Imp3 is not required for Imp7/9 interactions with JNK1/2 and p38α/β. HeLa cells were treated with Si RNAs of Imp3 according to the manufacturer instructions. Forty eight hrs after transfection, the cells were serum starved, and then stimulated with Anisomycin (Anis 0.5 μg/ml) or TPA (TPA 250 ng) or left untreated (NT). Cell extracts were then subjected to Co-IP with anti Imp7 or Imp9, the interacting MAPKs were detected by Western blot with the indicated Abs. Amount of IPed Imps was detected by the indicated Abs.

[4] = biological target: T2, Importin9; assay: as above
Experimental: as §1

[5] = biological target: T1, Importin7; assay: Co-IP of overexpressed GFP-tagged MAPK in HeLa cells
[6] = biological target: T2, Importin9; assay: as above
[7] = biological target: T1, Importin7; assay: Co-IP with anti GFP Abs, transfected HeLa cells
Experimental: (§2) FIGS. 10A-10B illustrate that endogenous and overexpressed JNK1/2 and p38α/β CoIP with Imp3, 7 and 9. (A) A Co-IP screen to detect the importins interacting with JNK1/2 and p38α/β in MCF7 cells. MCF7 cells were grown on slides to 70% confluence, serums starved and then were either stimulated with Anisomycin (Anis 0.5 μg/ml, 15 min), TPA (250 nM, 15 min) or left untreated (NT). Cells extracts were then subjected to Co-IP with anti JNK1, JNK2, p38α, or p38β, and rabbit IgG as a negative control (Control). The interacting Imps or the IPed MAPKs were detected by Western blot with the indicated Imps or MAPK Abs. (B) Interaction of overexpressed MAPKs in HeLa cells. HeLa cells were transfected with either JNK2-GFP (wt-JNK2), p38ββ-GFP (wt-p38β) or GFP alone. Cells were serum starved, and then treated with Anisomycin (Anis 0.5 μg/ml, 15 min), TPA (250 nM, 15 min). Cells extracts were then subjected to a CoIP with anti GFP Abs. The interacting Imps and the loading extracts were detected using Western blot analysis with the indicated (left) Abs. The blots were developed with either NBT/BCIP or ECL. Arrows indicate interacting Imps.

[8] = biological target: T2, Importin9; assay: Co-IP with anti GFP Abs, transfected HeLa cells
Experimental: as §2

Measured: binding

GST-JNK2 (from UniProt P45984 1-424) (enzyme)
binds: [1] | [2] | [3] | [4]

JNK2-GFP (from UniProt P45984 1-424) (enzyme)
binds: [5] | [6] | [7] | [8]

GST-JNK1 (from UniProt P45983 1-427) (enzyme)
binds: [1] | [2] | [3] | [4]
